Experimental data: PubChem BioAssay AID1259425 (University of Nebraska Medical Center, 2018)

- Purpose: 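Seek colon cancer weak points whose silencing resembles KSR1 loss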 (primary screen)
- Cells: HCT116 human colon cancer cells
- Reagents: siRNA pool against human genes, 50 nM siRNA
- Measured: 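mRNA of six signature genes measured together by branched-DNA assay after 50 nM siRNA pool, blank removed, divided by geometric mean of two housekeeping genes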
- Direction: BNIP3L mRNA: higher = more BNIP3L transcript after knockdown; NDRG1 mRNA: higher = more NDRG1 transcript after knockdown
Here is an unselected part of about 14,000 reagents tested. Not all columns of the deposit are shown. Not stated in the record: the time to read-out.

target | BNIP3L mRNA, set 1 | NDRG1 mRNA, set 1
SON | 0.19 | 0.905
NCBP3 | 0.0977 | 0.487
GTF3C1 | 0.13 | 0.216
RUNX1 | 0.0675 | 0.143
TASL | 0.113 | 0.246
IL21 | 0.123 | 0.0769
RABEP1 | 0.136 | 0.339
PIK3R1 | 0.184 | 0.0899
TFIP11 | 0.0657 | 0.428
GPR19 | 0.208 | 0.563
NR4A1 | 0.146 | 0.379
VTA1 | 0.0675 | 0.326
AFP | 0.0942 | 0.288
NUBPL | 0.151 | 0.194
CTC1 | 0.167 | 0.271
P2RY11 | 0.146 | 0.747
EMP2 | 0.0542 | 0.26

Next part; the last 2 above are carried over.
target | BNIP3L mRNA, set 1 | NDRG1 mRNA, set 1
P2RY11 | 0.146 | 0.747
EMP2 | 0.0542 | 0.26
BNC1 | 0.125 | 0.0894
LUC7L | 0.112 | 0.217
ARHGAP8 | 0.103 | 0.211
BEST1 | 0.168 | 0.473
PPAT | 0.08 | 0.128
PFKM | 0.103 | 0.295
UBXN1 | 0.118 | 0.0556
CSTB | 0.0517 | 0.357
GAK | 0.186 | 0.284
HPCA | 0.128 | 0.14
CAMTA2 | 0.0738 | 0.102
LRBA | 0.121 | 0.116
DYNC1I1 | 0.148 | 0.221
RASSF4 | 0.263 | 0.359
CCNB3 | 0.193 | 0.146
TNRC6C | 0.0664 | 0.103
TMEM140 | 0.124 | 0.199
